# In PubChem BioAssay AID445 (National Center for Advancing Translational Sciences (NCATS), 2006):
# The other results are listed elsewhere or left out. Shown are side measurements of this screen, not its main read-out; they come without a call. The list favours compounds with an active or inconclusive main result. Potencies come from curve fits of mixed quality, noted in brackets.
# Experiment: IkB Signaling
# Conditions: ABC-DLBCL IkBa-CBG/CBR dual luciferase ratio (green luciferase fused to IkBa over red control in OCI-Ly3 lymphoma cells), 4 h
# Outline: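 In this assay, an IκBα–CBG68 fusion accumulates when IKK-driven degradation is blocked; native CBR normalizes for cell number. OCI-Ly3 cells were treated 4 h with compound and doxycycline, then green and red light read after Chroma-Glo addition.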
# [1] = measured here: control luc red channel unless noted
# [2] = measured here: IkB-luc green channel
# [3] = measured here: control luc red channel
structure (smiles),measurement,setting,value
CCOC(=O)c1ccc(N2CCN(c3cc(C)ccc3C)CC2)c(NC(=O)Nc2ccc(Cl)cc2)c1,AC50,[1],"0.0631 µM [rising, full curve, poor fit]"
CCCCc1ccc2nc(NC(=O)OC)[nH]c2c1,AC50,[2],"0.501 µM [rising, full curve]"
same,AC50,[3],"0.158 µM [rising, full curve]"
Cc1nc2nc(C)c(NS(=O)(=O)c3ccc(CC(C)C)cc3)c(=O)n2[nH]1,AC50,[1],"20 µM [falling, partial curve]"
CCn1c(CN2CCOCC2)nc2cc(NC(=O)c3cccc([N+](=O)[O-])c3)ccc21,AC50,[1],"25.1 µM [falling, partial curve]"
NC(=O)CSc1nc2sc3c(c2c2ncnn12)CCCC3,AC50,[1],"15.8 µM [rising, partial curve]"
Cc1cc(NC(=O)CCCS(=O)(=O)c2nc(-c3cccs3)cc(C(F)(F)F)n2)no1,AC50,[1],"3.16 µM [falling, full curve]"
Cn1c(=O)c2c(-c3ccccc3)n(CCCO)cc2n(C)c1=O,AC50,[1],"12.6 µM [rising, partial curve]"
CC1CC(C)CN(S(=O)(=O)c2ccc(C(=O)N3CCN(c4ccccc4)CC3)cc2)C1 (centres undefined),AC50,[1],"10 µM [falling, partial curve]"
CCN(CC)S(=O)(=O)c1ccc2oc(C(=O)NCc3ccc(F)cc3)c(C)c2c1,AC50,[1],"10 µM [falling, partial curve]"
CCN(CC)CCOC(=O)c1ccc(NC(=O)c2cc3c(s2)-c2ccccc2OC3)cc1,AC50,[1],"0.631 µM [falling, partial curve]"
Clc1cccc(C2=NC(c3cccs3)=Nc3ccc(Br)cc3N2)c1,AC50,[1],"15.8 µM [falling, single point]"
Cc1nc(-c2ccc(S(=O)(=O)Nc3ccc(Cl)c(C(F)(F)F)c3)cc2)co1,AC50,[1],"31.6 µM [falling, partial curve, poor fit]"
CCOc1ccccc1CNC(=O)c1cnc2sc(N(CC)CC)nn2c1=O,AC50,[1],"39.8 µM [falling, single point]"
CC(C)CN(CCNC(=O)c1cc(-c2cccs2)nc2ccccc12)CC(C)C,AC50,[1],"15.8 µM [falling, single point]"
Cn1c(=O)c2c(c3ccccc31)OC(=O)CC2c1cccc(Cl)c1 (centres undefined),AC50,[1],"2.51 µM [falling, partial curve]"
COc1ccccc1/C=C/c1nc(C#N)c(NCC(C)C)o1,AC50,[1],"25.1 µM [falling, single point]"
Cc1ccc(-c2nc(CCNC(=O)C(=O)Nc3c(C)cccc3C)cs2)cc1,AC50,[1],"0.631 µM [rising, full curve]"
COc1ccccc1CNc1ncnc2c1nnn2Cc1ccccc1,AC50,[1],"12.6 µM [falling, partial curve]"
Cc1ccc(-c2nn(C)c(=O)c3ccccc23)cc1S(=O)(=O)N1CCCC1,AC50,[1],"25.1 µM [rising, partial curve] [measured here: IkB-luc green channel]"
COc1cc2[nH]c3c(N4CCN(c5ccccn5)CC4)ncnc3c2cc1OC,AC50,[1],"3.16 µM [falling, full curve, poor fit]"
Cc1nc(NCc2ccco2)c2c3c(sc2n1)CCC3,AC50,[1],"39.8 µM [falling, single point]"
CCCN(CCC)C(=O)c1nn(C)c2c1CSc1ccc(C)cc1-2,AC50,[1],"31.6 µM [falling, partial curve]"
CC(C)c1nnc(NC(=O)c2c(O)c3cccc4c3n(c2=O)CC4)s1,AC50,[1],"0.0794 µM [falling, full curve]"
CSc1ccccc1NC(=O)c1noc2c1CCC2,AC50,[1],"6.31 µM [falling, partial curve]"
O=C(O)c1ccc(-n2c(-c3ccccc3)n[nH]c2=S)cc1,AC50,[1],"10 µM [falling, partial curve]"
CC(C)Cn1c(=O)c2ccccc2n2c(CCC(=O)Nc3ccc(F)cc3)nnc12,AC50,[1],"0.2 µM [falling, partial curve, poor fit]"
CCOC(=O)N1CCC(NC(=O)c2cnn(-c3ccc(OC)cc3)c2C2CCN(C(=O)OC(C)(C)C)CC2)CC1,AC50,[1],"15.8 µM [falling, single point]"
Fc1ccc2[nH]c3c(N4CCSCC4)ncnc3c2c1,AC50,[1],"6.31 µM [falling, full curve]"
Cc1ccccc1NC(=O)COc1ccc2oc3c(c2c1)CCCC3,AC50,[1],"12.6 µM [falling, partial curve]"
Cc1cc(Cl)ccc1OC(C)C(=O)Nc1ccccc1N1CCOCC1 (centres undefined),AC50,[1],"31.6 µM [falling, single point]"
O=C(CN1C(=O)COc2ccc(S(=O)(=O)N3CCCCCC3)cc21)N1CCN(c2ccc(F)cc2)CC1,AC50,[1],"31.6 µM [falling, single point]"
COc1ccc(-c2cc3nc(C)c(CCC(=O)NCCc4ccc(Cl)cc4)c(C)n3n2)c(OC)c1,AC50,[1],"2 µM [falling, full curve]"
Cc1ccc(Cn2c(=O)c3cccnc3n(Cc3ccc(C)cc3)c2=O)cc1,AC50,[1],"0.0794 µM [falling, partial curve, poor fit]"
Cc1ccc(CSc2ncc(Cl)c(C(=O)Oc3ccccc3F)n2)cc1,AC50,[1],"39.8 µM [falling, single point]"
Cc1ccccc1OCCn1cc(C(=O)c2ccco2)c2ccccc21,AC50,[1],"12.6 µM [falling, partial curve]"
CC(C)COC(=O)n1c(SCC(=O)N(C)C)nc2ccccc21,AC50,[1],"10 µM [falling, partial curve]"
Cc1ccc2cccc(S(=O)(=O)N3CCN(c4ccccc4F)CC3)c2n1,AC50,[2],"31.6 µM [falling, partial curve]"
same,AC50,[3],"25.1 µM [falling, partial curve]"
Clc1ccc(-c2noc3ncnc(NC4CCCCC4)c23)cc1,AC50,[1],"3.16 µM [rising, partial curve, poor fit]"
COc1cc(CNC(=O)c2ccc3nc(Cc4ccccc4)oc3c2)cc(OC)c1OC,AC50,[1],"7.94 µM [falling, single point]"
COc1cccc(C(=O)CC2(O)C(=O)N(Cc3ccccc3)c3ccccc32)c1 (centres undefined),AC50,[1],"12.6 µM [falling, partial curve]"
Cc1ccccc1C(=O)Nc1sc2c(c1C(=O)N1CCC(C)CC1)CCC(C)C2 (centres undefined),AC50,[1],"15.8 µM [falling, partial curve]"
COc1ccccc1-n1cnnc1SCC(=O)c1cc(C)n(Cc2cccs2)c1C,AC50,[1],"31.6 µM [falling, partial curve]"
CCOc1cc2[nH]c(=O)n(CCCCC(=O)N3CCN(c4ccccc4OC)CC3)c(=O)c2cc1OCC,AC50,[1],"25.1 µM [falling, single point]"
Cc1cn2c(=O)cc(COC(=O)c3ccc(NC(=O)c4ccccc4C)cc3)nc2s1,AC50,[1],"3.98 µM [falling, partial curve]"
COc1ccc2c(c1)c1c(c(=O)n(-c3ccc(OC)c(OC)c3)c(=O)n1Cc1ccc(F)cc1)n2C,AC50,[1],"39.8 µM [rising, single point]"
Cc1ccccc1CS(=O)(=O)Cc1ccc(C(=O)NCCc2ccc(Cl)cc2)o1,AC50,[1],"39.8 µM [falling, partial curve]"
CCOC(=O)C1CCCN(c2c(C(=O)c3ccccc3)cnc3ccc(F)cc23)C1 (centres undefined),AC50,[1],"39.8 µM [falling, single point]"
O=C(CCS(=O)(=O)c1nc(-c2ccc3c(c2)OCO3)cc(C(F)(F)F)n1)Nc1ccc(Br)cc1,AC50,[1],"5.01 µM [falling, full curve]"
CCCCN(CC)C(=O)c1c[nH]c2ccc(S(=O)(=O)N(C)c3ccc(Cl)cc3)cc2c1=O,AC50,[1],"15.8 µM [falling, partial curve]"
COc1cccc(-c2cc(C(=O)N3CCCc4ccccc43)no2)c1,AC50,[1],"25.1 µM [falling, partial curve]"
O=C1CC(c2c(F)cccc2Cl)c2c(ccc3ccccc23)N1 (centres undefined),AC50,[1],"31.6 µM [falling, single point]"
COc1ccc(C(=O)CSc2nnc(Cn3cnc4ccccc43)o2)cc1,AC50,[1],"10 µM [falling, partial curve]"
COc1ccc(C(=O)Nc2ccc3nc4c(c(Nc5ccccc5OC)c3c2)CCCC4)c(OC)c1,AC50,[1],"25.1 µM [falling, single point]"
O=C(CCn1nc(-c2ccccc2)c2ccccc2c1=O)N1CCN(c2ccccc2)CC1,AC50,[1],"12.6 µM [falling, partial curve]"
O=C(Cn1c(NCCO)nc2ccccc21)c1ccc(Cl)cc1,AC50,[1],"25.1 µM [falling, single point]"
CCN(c1ccccc1C)S(=O)(=O)c1nnc(NC(=O)c2ccccc2C)s1,AC50,[1],"0.501 µM [rising, full curve]"
CCOc1ccc(CN2CCN(Cc3ccc4c(c3)c3ccccc3n4CC)CC2)cc1,AC50,[1],"20 µM [falling, partial curve]"
CCOc1ccc(C(=O)/C=C/c2cn(CC(O)CN3CCc4ccccc43)c3ccccc23)cc1 (centres undefined),AC50,[1],"5.01 µM [falling, partial curve]"
Cc1ccc(-c2c(C(=O)N3CCN(c4ccc(F)cc4)CC3)oc(=O)c3ccccc23)cc1,AC50,[1],"15.8 µM [falling, partial curve, poor fit]"
Cc1cc(C)cc(N2C(=O)N(Cc3cc(=O)n4ccccc4n3)c3ccccc3S2(=O)=O)c1,AC50,[1],"0.794 µM [falling, partial curve]"
CC(C)Cn1c(N)c(C(=O)COC(=O)c2ccc3c(c2)OCCO3)c(=O)n(C)c1=O,AC50,[1],"20 µM [falling, partial curve]"
Cc1cccc2c1-c1sc(C(=O)NCCCN3CCN(c4ccccc4F)CC3)cc1CO2,AC50,[1],"25.1 µM [falling, partial curve]"

# Part of the list above, tab-delimited.
structure (smiles)	measurement	setting	value
Cc1cc(NC(=O)CCCS(=O)(=O)c2nc(-c3cccs3)cc(C(F)(F)F)n2)no1	AC50	[1]	3.16 µM [falling, full curve]
Cn1c(=O)c2c(-c3ccccc3)n(CCCO)cc2n(C)c1=O	AC50	[1]	12.6 µM [rising, partial curve]
CC1CC(C)CN(S(=O)(=O)c2ccc(C(=O)N3CCN(c4ccccc4)CC3)cc2)C1 (centres undefined)	AC50	[1]	10 µM [falling, partial curve]
